{
  "sequences": {"note": "Chains of the proteins cited; added tags and fusions are not shown. Residues count along the entry.", "UniProt P09259, residues 31-623": "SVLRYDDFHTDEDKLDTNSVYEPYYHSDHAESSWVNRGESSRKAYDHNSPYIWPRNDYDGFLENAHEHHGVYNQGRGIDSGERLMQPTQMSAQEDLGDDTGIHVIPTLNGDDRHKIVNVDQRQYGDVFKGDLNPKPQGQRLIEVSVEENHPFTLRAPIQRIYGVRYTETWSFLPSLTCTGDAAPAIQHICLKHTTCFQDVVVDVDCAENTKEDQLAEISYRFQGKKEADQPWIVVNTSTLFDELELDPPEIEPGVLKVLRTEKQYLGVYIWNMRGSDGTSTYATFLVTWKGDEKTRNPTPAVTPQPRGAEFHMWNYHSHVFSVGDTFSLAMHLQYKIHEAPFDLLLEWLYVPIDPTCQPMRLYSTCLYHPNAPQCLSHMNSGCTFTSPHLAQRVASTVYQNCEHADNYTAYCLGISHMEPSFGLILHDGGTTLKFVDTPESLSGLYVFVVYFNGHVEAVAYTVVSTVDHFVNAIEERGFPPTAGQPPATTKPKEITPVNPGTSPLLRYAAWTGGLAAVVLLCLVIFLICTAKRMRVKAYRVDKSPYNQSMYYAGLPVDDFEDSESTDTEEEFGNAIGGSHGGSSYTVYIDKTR"},
  "source": "paper PMC7817050",
  "about": "(PLoS Pathogens, 2021)",
  "note": "These are yes or no findings as the source states them, for the method shown. In cells and extracts the contact can be indirect. Some results given as binding are weak or reduced against the parent protein; the word gives no strength.",
  "data": [
    {"target": "VZV gH-gL heterodimer with V5-tagged gH (varicella-zoster virus) (UniProt P09260)", "assay": "co-IP; CHO-DSP1 cells transfected with gB, gH[V5] and gL (for the specificity test also pBud-gE/gI); anti-V5 agarose; western blots for V5, gB and gE", "values": [
      {"molecule": "VZV gB 109AAAA112 (from UniProt Q4JR05 72-931)", "binding": "binds"},
      {"molecule": "VZV gB D112A (from UniProt Q4JR05 72-931)", "binding": "binds"},
      {"molecule": "VZV gB K109A (from UniProt Q4JR05 72-931)", "binding": "binds"},
      {"molecule": "VZV gB K109R (from UniProt Q4JR05 72-931)", "binding": "binds"},
      {"molecule": "VZV gB Q111A (from UniProt Q4JR05 72-931)", "binding": "binds"},
      {"molecule": "VZV gB S110A (from UniProt Q4JR05 72-931)", "binding": "binds"},
      {"molecule": "VZV gE (from UniProt P09259 31-623)", "binding": "no binding"}
    ]},
    {"target": "VZV gH-gL heterodimer with V5-tagged gH (varicella-zoster virus) (UniProt P09260)", "assay": "co-IP; CHO-DSP1 cells transfected with gB, gH[V5] and gL (for the specificity test also pBud-gE/gI); anti-V5 agarose; western blots for V5, gB and gE", "remark": "another data set of the same source", "values": [
      {"molecule": "VZV gB wild type expressed from pCAGGS-gB in CHO-DSP1 cells (protein, UniProt Q4JR05 72-931) VSPSSFYESLQVEPTQSEDITRSAHLGDGDEIREAIHKSQDAETKPTFYVCPPPTGSTIVRLEPPRTCPDYHLGKNFTEGIAVVYKENIAAYKFKATVYYKDVIVSTAWAGSSYTQITNRYADRVPIPVSEITDTIDKFGKCSSKATYVRNNHKVEAFNEDKNPQDMPLIASKYNSVGSKAWHTTNDTYMVAGTPGTYRTGTSVNCIIEEVEARSIFPYDSFGLSTGDIIYMSPFFGLRDGAYREHSNYAMDRFHQFEGYRQRDLDTRALLEPAARNFLVTPHLTVGWNWKPKRTEVCSLVKWREVEDVVRDEYAHNFRFTMKTLSTTFISETNEFNLNQIHLSQCVKEEARAIINRIYTTRYNSSHVRTGDIQTYLARGGFVVVFQPLLSNSLARLYLQELVRENTNHSPQKHPTRNTRSRRSVPVELRANRTITTTSSVEFAMLQFTYDHIQEHVNEMLARISSSWCQLQNRERALWSGLFPINPSALASTILDQRVKARILGDVISVSNCPELGSDTRIILQNSMRVSGSTTRCYSRPLISIVSLNGSGTVEGQLGTDNELIMSRDLLEPCVANHKRYFLFGHHYVYYEDYRYVREIAVHDVGMISTYVDLNLTLLKDREFMPLQVYTRDELRDTGLLDYSEIQRRNQMHSLRFYDIDKVVQYDSGTAIMQGMAQFFQGLGTAGQAVGHVVLGATGALLSTVHGFTTFLSNPFGALAVGLLVLAGLVAAFFAYRYVLKLKTSPMKALYPLTTKGLKQLPEGMDPFAEKPNATDTPIEEIGDSQNTEPSVNSGFDPDKFREAQEMIKYMTLVSAAERQESKARKKNKTSALLTSRLTGLALRNRRGYSRVRTENVTGV", "binding": "binds"}
    ]}
  ]
}
